The values below come from US7977120B2, “Fluorescent sensors for cellular amines” (The Curators of the University of Missouri, priority 2005, dated 2011).

The nature of the data set: Titration of Sensor Ia with various analytes (UV-vis and fluorescence). The format is binding. The following applies: change in absorbance; 10 μM sensor Ia, 100 mM Na2S2O3, 50 mM HEPES, 20 mM NaCl, pH=7.0, 37° C. How it is done:
One exemplary coumarin-based sensor, 2-(((5-(7-(diethylamino)-3-formyl-2-oxo-2H-chromen-4-yl)pentyl)(methyl)amino)methyl)phenylboronic acid, sensor Ia, has been examined spectrophotometrically by titration with dopamine under neutral aqueous conditions in which a reducing agent is included to suppress oxidation of the air-sensitive catechol group.
The titration conditions are 10 μM sensor Ia with 100 mM Na2S2O3, 50 mM HEPES, 20 mM NaCl, pH=7.0, and at 37° C. […] See also, Org. Lett. 2004, 6(21), 3727-3730, which is incorporated herein by reference.
Binding constants (Ka) are determined by fluorescence titrations.
In turn, `NC(CCC(=O)O)C(=O)O` (stereo not shown) had a Δλm01 of 35 nm.

Consider `NCCCCC(N)C(=O)O` (stereo not shown), for which the Δλm01 was found to be 36 nm.

Molecule `NC1C(O)OC(CO)C(O)C1O` (stereo not shown) had a Δλm01 of 39 nm.

The molecule `NCCc1ccc(O)cc1` [Tyramine] returned a Δλm01 of 31 nm.

`NCCc1ccc(O)c(O)c1` [dopamine] registered a Δλm01 of 30 nm.

For `CNCC(O)c1ccc(O)c(O)c1` (stereo not shown) [epinephrine], the Δλm01 was determined as 0 nm.

`NCC(O)c1ccc(O)c(O)c1` (stereo not shown) [norepinephrine] gave a Δλm01 of 24 nm.
